Reference: the supplement of paper PMC12067093, “Discovery and optimisation of a covalent ligand for TRIM25 and its application to targeted protein ubiquitination” (Chemical Science, 2025)
The list shows a part of the results.

Each target was assayed with CC1Cc2ccccc2N1C(=O)C1CCCN(C1)C(=O)CCl (mixture of isomers) [TRIM25 ligand 11 (diastereomer mixture)] (assay: probe-labelled cysteine peptide fold change vs DMSO (competition) (log2 fold change); higher = less target engagement (more negative = stronger competition)). Conditions: 10 µM; THP-1; incubation time: 4 h.
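Further: competitive chemoproteomic profiling in live THP-1 cells with an iodoacetamide desthiobiotin (IA-DTB) probe, comparing probe-labelled peptide intensities in compound-treated cells against DMSO-treated controls.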

Target	probe-labelled cysteine peptide fold change
G6PD_P11413_232_DNIACVILTFK (UniProt P11413)	0.17
FUBP3_Q96I24_310_CQHAAHIISELILTAQER (UniProt Q96I24)	-0.0735
FLNB_O75369_2057_VDIQTEDLEDGTCK (UniProt O75369)	0.0218
G3BP2_Q9UN86_73_VLSLNFSECHTK (UniProt Q9UN86)	-0.00192
FLII_Q13045_46_TGLCYLPEELAALQK (UniProt Q13045)	0.0138
FKBP1A_P62942_23_RGQTCVVHYTGMLEDGK (UniProt P62942)	-0.0307
FXR1_P51114_129_CTVDVPEDLR (UniProt P51114)	0.181
FRMD8_Q9BZ67_206_EKLDSFLPAHLCK (UniProt Q9BZ67)	-0.203
FHL3_Q13643_10_CNESLYGR (UniProt Q13643)	-0.143
FRG1_Q14331_205_QCEINYVK (UniProt Q14331)	-0.0875
FOXK1_P85037_439_SGGLQTPECLSR (UniProt P85037)	-0.0677
FOXP1_Q9H334_29_SNGSAIQNGSGGSNHLLECGGLR (UniProt Q9H334)	0.115
FNBP1L_Q5T0N5_543_GPPQQHGHHNEFDDEFEDDDPLPAIGHCK (UniProt Q5T0N5)	0.0268
FHL3_Q13643_251_HWHHNCFSCAR (UniProt Q13643)	0.0923
FUCA1_P04066_296_FKPQSLPDHKWEMCTSIDK (UniProt P04066)	0.00925
FNBP1_Q96RU3_609_NEDEEGYVPTSYVEVCLDK (UniProt Q96RU3)	-0.117
FRYL_O94915_2160_DCSNWINVVCR (UniProt O94915)	-0.093
FTSJ3_Q8IY81_52_ALLDLCAAPGGWLQVAAK (UniProt Q8IY81)	-0.282

2 entries drawn at random from the list so far:
Target	probe-labelled cysteine peptide fold change
FHL3_Q13643_10_CNESLYGR (UniProt Q13643)	-0.143
FNBP1L_Q5T0N5_543_GPPQQHGHHNEFDDEFEDDDPLPAIGHCK (UniProt Q5T0N5)	0.0268

The list goes on:

Target	probe-labelled cysteine peptide fold change
FRY_Q5TBA9_869_HCPTALSYAWPYAFTR (UniProt Q5TBA9)	-0.0148
FHL2_Q14192_7_FDCHHCNESLFGK (UniProt Q14192)	0.0456
FHOD1_Q9Y613_43_APTCSLDGALPLGAQIPAVHR (UniProt Q9Y613)	0.156
FHOD1_Q9Y613_936_LTHFLDQCAR (UniProt Q9Y613)	-0.0135
FUBP1_Q96AE4_132_IQQESGCK (UniProt Q96AE4)	0.0917
FKBP15_Q5T1M5_1031_DGSLPPELSCIPSHR (UniProt Q5T1M5)	0.00994
FOCAD_Q5VW36_392_QQLALNLLEMIQQECYR (UniProt Q5VW36)	-0.0279
FPGS_Q05932_111+116_GSTCAFTECILR (UniProt Q05932)	-0.126
FSCN1_Q16658_19_TANGTAEAVQIQFGLINCGNK (UniProt Q16658)	0.0448
G6PC3_Q9BUM1_269_DSGAALGLGIALHSPCYAQVR (UniProt Q9BUM1)	0.0276
FYCO1_Q9BQS8_709+719_EGECQQLREEVEQCQQLAEAR (UniProt Q9BQS8)	-0.293
FLNB_O75369_2333_VHSPSGAVEECHVSELEPDK (UniProt O75369)	0.15
FHL1_Q13642_65_FWHDTCFR (UniProt Q13642)	0.051
FKBP8_Q14318_195_SPYIPPHAALCLEVTLK (UniProt Q14318)	0.0328
G6PD_P11413_446_LILDVFCGSQMHFVR (UniProt P11413)	-0.0531
FTH1_P02794_91_KPDCDDWESGLNAMECALHLEK (UniProt P02794)	0.166
FUCA2_Q9BTY2_294_WENCMTIDK (UniProt Q9BTY2)	0.00355
FLAD1_Q8NFF5_561_CLSPGGHPTYRPAYLLENEEEER (UniProt Q8NFF5)	0.144
